In paper PMC7227406, “Protein Phosphatases Type 2C Group A Interact with and Regulate the Stability of ACC Synthase 7 in Arabidopsis” (Cells, 2020):
Results are given in words; binding and its absence hold for the method and conditions named. Binding seen in cells or lysates may run through a third protein. Binding calls can cover weak binding; strength is not graded here. For some assays here: Tags and fused reporters may be left off the sequences shown.

Protein sequences, listed by entry. Tags and fused reporters are not part of them. Lines headed by an entry give the natural chain unless they say otherwise; changes in a name come on top.
UniProt Q9CAJ0: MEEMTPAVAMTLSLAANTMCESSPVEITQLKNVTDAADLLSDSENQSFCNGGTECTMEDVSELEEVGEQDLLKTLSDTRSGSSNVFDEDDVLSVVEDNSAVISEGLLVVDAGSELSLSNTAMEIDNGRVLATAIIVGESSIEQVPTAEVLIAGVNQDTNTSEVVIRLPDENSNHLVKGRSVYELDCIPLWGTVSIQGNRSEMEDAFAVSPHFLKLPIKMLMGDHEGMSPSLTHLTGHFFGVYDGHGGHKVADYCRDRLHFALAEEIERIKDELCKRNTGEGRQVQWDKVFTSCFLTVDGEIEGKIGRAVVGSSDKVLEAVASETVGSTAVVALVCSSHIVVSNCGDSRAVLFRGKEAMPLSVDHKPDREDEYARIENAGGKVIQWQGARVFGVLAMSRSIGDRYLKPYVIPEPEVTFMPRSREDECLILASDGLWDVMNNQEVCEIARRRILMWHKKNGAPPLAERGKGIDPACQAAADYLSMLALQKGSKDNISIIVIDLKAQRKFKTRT

Assays:
Test in all cases: split reporter; multicolor BiFC (mcBiFC) in Arabidopsis leaf mesophyll protoplasts; plasmids for nVenus and cCFP fusions mixed 1:1, PEG-mediated transformation, overnight at room temperature; confocal microscopy, 488 nm excitation, 500–550 nm emission; CBP20–RFP as transformation control and nuclear marker
[1] = target: T1, nVenus–ACS7 (1-aminocyclopropane-1-carboxylate synthase 7 fused with the N-terminal fragment of Venus) (Arabidopsis thaliana) (UniProt Q9STR4)
T1 sequence: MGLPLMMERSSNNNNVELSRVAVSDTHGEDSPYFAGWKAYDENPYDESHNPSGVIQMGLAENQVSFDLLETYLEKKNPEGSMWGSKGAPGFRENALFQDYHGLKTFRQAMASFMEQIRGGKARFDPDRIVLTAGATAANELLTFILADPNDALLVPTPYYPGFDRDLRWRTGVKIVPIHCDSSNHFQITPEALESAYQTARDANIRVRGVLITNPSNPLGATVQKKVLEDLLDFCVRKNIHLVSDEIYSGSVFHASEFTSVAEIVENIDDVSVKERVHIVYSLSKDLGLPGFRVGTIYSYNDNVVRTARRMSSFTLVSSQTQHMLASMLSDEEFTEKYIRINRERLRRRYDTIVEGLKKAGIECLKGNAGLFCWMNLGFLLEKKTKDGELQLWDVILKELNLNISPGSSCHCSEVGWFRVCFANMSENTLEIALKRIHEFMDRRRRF

[2] = target: T2, nVenus–ACS7 Δ1 (ACS7^1–50) (Arabidopsis thaliana) (UniProt Q9STR4)
T2 sequence: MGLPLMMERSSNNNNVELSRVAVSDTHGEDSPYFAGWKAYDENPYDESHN

[3] = target: T3, nVenus–ACS7 Δ2 (ACS7^1–100) (Arabidopsis thaliana) (UniProt Q9STR4)
T3 sequence: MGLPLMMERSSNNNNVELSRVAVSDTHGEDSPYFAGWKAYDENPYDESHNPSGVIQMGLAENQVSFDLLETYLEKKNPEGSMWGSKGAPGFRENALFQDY

[4] = target: T4, nVenus–ACS7 Δ3 (ACS7^200–447) (Arabidopsis thaliana) (UniProt Q9STR4)
T4 sequence: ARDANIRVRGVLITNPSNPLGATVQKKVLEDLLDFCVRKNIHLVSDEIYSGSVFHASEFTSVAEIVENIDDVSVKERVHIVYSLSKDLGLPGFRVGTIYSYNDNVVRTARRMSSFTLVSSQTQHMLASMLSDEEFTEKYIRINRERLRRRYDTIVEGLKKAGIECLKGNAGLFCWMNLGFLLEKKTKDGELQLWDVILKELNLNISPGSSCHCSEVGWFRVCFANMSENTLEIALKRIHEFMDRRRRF

[5] = target: T5, nVenus–ACS7 Δ4 (ACS7^101–447) (Arabidopsis thaliana) (UniProt Q9STR4)
T5 sequence: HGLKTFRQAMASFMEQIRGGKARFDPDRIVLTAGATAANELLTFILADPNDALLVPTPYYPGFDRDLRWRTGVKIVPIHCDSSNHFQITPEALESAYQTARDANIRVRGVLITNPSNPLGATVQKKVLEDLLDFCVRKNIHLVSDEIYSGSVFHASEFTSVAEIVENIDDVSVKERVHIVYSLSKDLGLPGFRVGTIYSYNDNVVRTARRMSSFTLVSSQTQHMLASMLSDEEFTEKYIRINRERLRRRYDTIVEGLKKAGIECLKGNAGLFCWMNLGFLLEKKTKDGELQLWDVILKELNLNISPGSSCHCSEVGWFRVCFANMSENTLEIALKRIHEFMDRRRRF

- binding [1]: binds
- binding [2]: binds
- binding [3]: binds
- binding [4]: binds
- binding [5]: binds
Substance: cCFP–HAB1 (protein phosphatase type 2C HAB1 fused with the C-terminal fragment of CFP) (from UniProt Q9CAJ0) (enzyme)
